Data from PubChem BioAssay AID256 (DTP/NCI, 2004).
The list is a part of this screen's results and no random one: it gathers tests that were run many times, whatever their T/C, doses with no T/C, and many T/C values between a quarter and a half above the control. Other doses and runs of a compound stand elsewhere. T/C is the treated group as % of the vehicle group. Some doses have a count of surviving animals in place of a T/C: the source files T/C as zero there, which appears to mark a toxic dose or a test without result, not a measured value. Some survivor counts are full or nearly so, which does not show that the dose was tolerated: the source hardly ever lists a survival T/C far under the control, and the zero likely stands for such cases as well. Counts of survivors are from the toxicity check (mostly the fifth day) where no day follows; animals may have died later. Schedule codes are those of the source, read here as Q, the interval in days (D) or hours (H), X, the number of doses. Where survival is the endpoint, the PubChem record calls one and a half times the control and up active, and a quarter to a half above the control has no call in these data; cut-offs in other NCI protocols can differ.

System: CD2F1 mice, L1210 leukemia ip, survival T/C
Test: NCI In Vivo Anticancer Drug Screen. Data for tumor model L1210 Leukemia (intraperitoneal) in CD2F1 (CDF1) mice
Settings: T/C endpoint: mean survival time, higher T/C = longer survival
In short: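 Vehicle-treated tumor-bearing mice served as controls (C) for compound-treated mice (T). Reported figure is T divided by C.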

[1] = dose: 200.0 mg/kg/injection, schedule: Q04DX003 (ip), vehicle: saline with Tween-80
[2] = dose: 400.0 mg/kg/injection, schedule: Q04DX002 (ip), vehicle: saline with Tween-80

Compound: NC(=S)N/N=C/c1ccccn1
- T/C (dose: 6.7 mg/kg/injection, schedule: Q01DX009 (ip), vehicle: saline with Tween-80): 132 % of control
- T/C (dose: 10.0 mg/kg/injection, schedule: Q01DX009 (ip), vehicle: saline with Tween-80): 148 % of control
- survivor count (dose: 12.5 mg/kg/injection, schedule: Q04DX002 (ip), vehicle: Klucel (hydroxypropylcellulose) (HPC)): 3 of 3
- survivor count (dose: 15.0 mg/kg/injection, schedule: Q01DX009 (ip), vehicle: saline with Tween-80): 1 of 6
- survivor count (dose: 25.0 mg/kg/injection, schedule: Q04DX002 (ip), vehicle: Klucel (hydroxypropylcellulose) (HPC)): 1 of 3
- survivor count (dose: 50.0 mg/kg/injection, schedule: Q04DX002 (ip), vehicle: Klucel (hydroxypropylcellulose) (HPC)): 0 of 3
- survivor count (dose: 100.0 mg/kg/injection, schedule: Q04DX003 (ip), vehicle: saline with Tween-80): 0 of 6
- survivor count [1]: 0 of 6
- survivor count (dose: 400.0 mg/kg/injection, schedule: Q04DX003 (ip), vehicle: saline with Tween-80): 0 of 6

Compound: COc1cc2c(cc1OC)CCN=C2
- survivor count (dose: 200.0 mg/kg/injection, schedule: Q01DX009 (ip), vehicle: saline): 0 of 3

Compound: COc1cccc(N=C(N)N=C(N)N)c1
- survivor count (dose: 400.0 mg/kg/injection, schedule: Q01DX009 (ip), vehicle: saline): 0 of 6

Compound: CC(C)NC(=O)NO
- survivor count (dose: 93.0 mg/kg/injection, schedule: Q03HX024 (ip), vehicle: saline with Tween-80): 5 of 8
- survivor count (dose: 140.0 mg/kg/injection, schedule: Q03HX024 (ip), vehicle: saline with Tween-80): 3 of 8
- survivor count (dose: 210.0 mg/kg/injection, schedule: Q03HX024 (ip), vehicle: saline with Tween-80): 0 of 8

Compound: Cn1c(=O)ccc2ccccc21
- survivor count [2]: 0 of 3

Compound: CC1(C)N=C(N)N=C(N)N1c1ccc(Cl)c(Cl)c1
- survivor count (dose: 200.0 mg/kg/injection, schedule: Q01DX001 (ip), vehicle: Klucel (hydroxypropylcellulose) (HPC)): 1 of 6
- survivor count (dose: 400.0 mg/kg/injection, schedule: Q01DX001 (ip), vehicle: Klucel (hydroxypropylcellulose) (HPC)): 0 of 6

Compound: FC(F)(F)c1ccc(Cl)c(N=C=S)c1
- survivor count [2]: 0 of 3

Compound: Cc1ccc(S(=O)(=O)N/N=C/C(Br)=C(/Br)C(=O)O)cc1
- survivor count (dose: 200.0 mg/kg/injection, schedule: Q01DX009 (ip), vehicle: Klucel (hydroxypropylcellulose) (HPC)): 5 of 6

Compound: [CH3][Sn]1([CH3])[O]C2C(CO)OC(n3cnc4c(=O)[nH]c(N)nc43)C2[O]1 (stereo not drawn)
- survivor count (dose: 200.0 mg/kg/injection, schedule: Q01DX005 (ip), vehicle: other): 0 of 6

Compound: O=C(CBr)CC(=O)Nc1ccccc1
- survivor count [1]: 5 of 6

Compound: CN(C)/C=C(\C#N)C=O
- survivor count (dose: 150.0 mg/kg/injection, schedule: Q04DX003 (ip), vehicle: saline with Tween-80): 3 of 6
- survivor count (dose: 300.0 mg/kg/injection, schedule: Q04DX003 (ip), vehicle: saline with Tween-80): 0 of 6
